The text below walks through data of US20110065208A1, “DETERMINATION AND ESTIMATION OF ABSORPTION AND DISTRIBUTION OF SUBSTANCES IN BRAIN TISSUE” (SOVICELL GMBH, priority 2008, published 2011).

The data set in a line: Brain lipid-water partition coefficient log MAbrain (membrane affinity) on immobilized brain lipid membranes. It is filed as physicochemical. On the procedure: 440 mg of a brain lipid extract (Avanti Polar Lipids Inc., USA) are dissolved in 50 mL of chloroform. This solution is evaporated under reduced pressure in a glass flask in a rotating rotary evaporator, wherein a thin lipid film deposits on the wall.
The lipid film is swollen overnight in a water vapor atmosphere; subsequently, 88 mL of a buffer (20 mM HEPES, pH 7.0, 30 mM NaCl, 2 mM CaCl2) are added, and the lipid film is vesiculated by means of a high-pressure homogenizer.
5 g of the carrier material provided above are added to the vesicle solution thus produced and incubated overnight. Excess lipid is removed by washing three times with buffer (20 mM HEPES, pH 7.0, 30 mM NaCl, 2 mM CaCl2). Finally, this is followed by rebuffering in PBS (phosphate-buffered saline, 10 mM sodium phosphate, 0.9% NaCl, pH 7.4) and filling up to 25 mL with buffer. The suspension obtained is then used to determine the brain lipid-water partition coefficient, as described below. […]
To each of these wells, 45 μL of a 500 μM solution of trifluoperazine in PBS/10% DMSO are added, and after mixing by resuspension, the solid body is separated from the supernatant by sedimentation. The concentration of the substance in the supernatant is quantified by UV measurement, and the brain lipid-water partition coefficient log MAbrain is calculated through the following equation: […]

Take `CC(C)NCC(O)COc1ccc(CC(N)=O)cc1` (centres unmarked) [Atenolol, atenolol]: the logMAbrain (Table 1, PBS pH 7.4, quantified by HPLC) was 0.90 and the logMAbrain (Table 4, repeated parameter set) is 0.90.
